# Assay results from PubChem BioAssay AID540256 (National Center for Advancing Translational Sciences (NCATS), 2011).
# About 3,700 (1.2%) of roughly 300,000 compounds were called active. This list was built around the results that the source calls inconclusive (neither active nor inactive); the mix of calls is not that of the screen. The call rests on the fitted dose curve; tested in HEK293 cells. Potencies of inconclusive entries are doubtful fits and often do not repeat.
# Assay: qHTS for Inhibitors of binding or entry into cells for Lassa Virus; further: nearly all actives have a fitted effect of over 50% in size
# Details: Lassa virus pseudotype entry inhibition, cell reporter; activity change, negative = inhibition: at 37.9 µM (top of the series) unless noted
# On the % scale 0 is the no-effect control and ±100 the full control effect; potency means the concentration at half of the fitted maximal effect.
Compound,Potency,"activity change, negative = inhibition"
CCN(CC)S(=O)(=O)c1ccc(OC)c(NC(=O)CSc2cc(Cl)ccc2Cl)c1,"inconclusive: 6.51 µM [inhibitor, partial curve, poor fit]",
Cc1nc(-n2nc(C)c(CCC(C)C)c2C)sc1C(=O)Nc1ccc(Br)cc1,,inactive: 11.1% [at 46.1 µM]
CC(=O)Nc1ccc2nc(N)sc2c1,,inactive: 6.28%
Cc1cccn2c(=O)cc(COc3cccc(NC(=O)COc4ccccc4)c3)nc12,,inactive: -0.336% [at 46.1 µM]
CCOC(=S)SCC(=O)Nc1nc(-c2ccccc2)cs1,"inconclusive: 3.98 µM [inhibitor, partial curve, poor fit]",
O=C(Oc1c(Cl)cc(Cl)c2ccccc12)N1CCCCC1,"inconclusive: 10 µM [inhibitor, partial curve, poor fit]",
CC(=O)c1cccc(NC(=O)/C(=C/c2ccco2)NC(=O)c2ccco2)c1,,inactive: 21.1% [at 46.1 µM]
COc1ccccc1N(C)S(=O)(=O)c1ccc(C)c(C(=O)Nc2nccs2)c1,,inactive: 8.71%
CCN(CC)C(=O)CSc1nc2cc(S(=O)(=O)N3CCOCC3)ccc2n1CC,,inactive: -15.5%
CCC(=O)c1ccc(OCc2ccc(C(=O)OC)o2)c(OC)c1,,inactive: 14.1%
CCOC(=O)c1cnc2ccc(Cl)cc2c1Nc1ccc(OCC)cc1,,inactive: -5.34% [at 46.1 µM]
O=C(CCl)N(C/C=C/c1ccccc1)c1ccc2c(c1)OCCO2,"inconclusive: 4.47 µM [inhibitor, full curve, poor fit]",
Cn1c(=O)n(C)c2cc([N+](=O)[O-])c(N3CCN(C(=O)c4ccccc4Br)CC3)cc21,"inconclusive: 22.4 µM [inhibitor, partial curve, poor fit]",
Cc1ccc2nc(C3CCCN(C(=S)Nc4cccc(C)c4C)C3)[nH]c2c1 (stereo unspecified),"inconclusive: 29.1 µM [inhibitor, single point]",
CCOc1cc(C2Sc3ccccc3NC3=C2C(=O)c2ccccc23)ccc1O (stereo unspecified),"inconclusive: 39.8 µM [inhibitor, partial curve, poor fit]",
Cc1cc(C)n(CCC(=O)N/N=C/c2ccc(O)cc2)n1,,inactive: -11.2%
COc1ccc(Nc2cc(C(=O)NCCCN(C)Cc3ccccc3)c3ccccc3n2)cc1,,inactive: -14.3% [at 46.1 µM]
CC(=O)Cc1nsc(Nc2ccc(Cl)cc2)n1,,inactive: -18.7%
CN(C)S(=O)(=O)c1cccc(-c2cn3ccccc3n2)c1,,inactive: 14.3%
CC(C)OC(=O)/C(C#N)=C/c1ccc(-c2ccc(Cl)c(Cl)c2)o1,,inactive: 25.4% [at 46.1 µM]
COC(=O)CSC(C(=O)Nc1ccc(C)c(C)c1)c1ccccc1 (stereo unspecified),,inactive: 26.8%
Cc1ccc(S(=O)(=O)N2CCN(C(=O)COC(=O)CCOc3ccccc3C)CC2)c(C)c1,"inconclusive: 0.112 µM [inhibitor, full curve, poor fit]",
Cc1cc(C)nc(NC(=O)c2cccc(Br)c2)n1,"inconclusive: 35.5 µM [activator, partial curve, poor fit]",

# Entries listed so far that contain an aryl thioether with sulfur outside any ring, in the order listed:
Compound,Potency,"activity change, negative = inhibition"
CCN(CC)S(=O)(=O)c1ccc(OC)c(NC(=O)CSc2cc(Cl)ccc2Cl)c1,"inconclusive: 6.51 µM [inhibitor, partial curve, poor fit]",
CCN(CC)C(=O)CSc1nc2cc(S(=O)(=O)N3CCOCC3)ccc2n1CC,,inactive: -15.5%

# More results follow.

Compound,Potency,"activity change, negative = inhibition"
COc1ccc(NC(=O)c2ccccc2NC(=O)CSc2ccccc2)cc1,"inconclusive: 35.5 µM [inhibitor, single point]",
Cc1ccc(-c2noc(C3CCN(C(=O)Nc4ccc(C#N)cc4)CC3)n2)o1,"inconclusive: 5.8 µM [inhibitor, full curve, poor fit]",
O=C(Nc1ccccc1)Nc1nc(-c2ccc(F)cc2)cs1,"inconclusive: 1.03 µM [inhibitor, full curve, poor fit]",
N#CC1=C2SCC(O)(c3ccccc3)N2C(=O)CC1c1cccs1 (stereo unspecified),"inconclusive: 6.51 µM [inhibitor, partial curve, poor fit]",
CC(=O)Nc1ccc(S(=O)(=O)N2CC(=O)NC(=O)C2)cc1,"inconclusive: 2 µM [activator, partial curve, poor fit]",
COCCCNC(=O)N1c2ccccc2Sc2ccccc21,,inactive: 3.16% [at 46.1 µM]
CC1(O)C(=O)c2ccccc2N(c2ccccc2)C1=O (stereo unspecified),"inconclusive: 29.1 µM [activator, partial curve, poor fit]",
c1ccc(N=Nc2ccc3cccccc2-3)cc1,"inconclusive: 3.16 µM [activator, single point]",
Cn1c(=N)n(CC(=O)c2cccs2)c2ccccc21,,inactive: 21.8%
CC(=O)NC(=O)COC(=O)/C=C/c1c(C)nn(Cc2c(Cl)cccc2Cl)c1Cl,"inconclusive: 0.891 µM [activator, full curve, poor fit]",
CCCC(NC(=O)C(C)N1CCN(S(=O)(=O)c2ccccc2)CC1)c1ccccc1 (stereo unspecified),"inconclusive: 17.8 µM [inhibitor, partial curve, poor fit]",
CCc1ccccc1NC(=O)c1cc2c(Cl)nc3ccccc3c2s1,,inactive: -4.4% [at 46.1 µM]
CCCCCCCCn1c(=O)c(C(=O)OC)c(N)c2ccccc21,"inconclusive: 22.4 µM [inhibitor, single point]",
COc1ccccc1N1CCN(C(=O)/C=C/c2ccco2)CC1,"inconclusive: 2.91 µM [activator, full curve, poor fit]",
Cc1ccc(N2C(=O)CC(=O)NC2=O)cc1Cl,"inconclusive: 3.55 µM [activator, partial curve]",
Cc1c(OCC(=O)OC(C)(C)C)ccc2c3c(c(=O)oc12)CCC3,"inconclusive: 2.51 µM [inhibitor, partial curve, poor fit]",
CCCOc1ccc(-c2nc[nH]c2[N+](=O)[O-])cc1,"inconclusive: 2.82 µM [inhibitor, full curve, poor fit]",
Cc1c(NC(=O)C(C)OC(=O)c2cccs2)c(=O)n(-c2ccccc2)n1C (stereo unspecified),,inactive: -5.33%
CCOC(=O)c1cc(-c2ccccc2)n(-c2cccc(C(=O)N(C)c3ccc(C)cc3)c2)c1C,"inconclusive: 0.891 µM [inhibitor, full curve, poor fit]",
C=CCSc1ncccc1C(=O)NCCc1ccc(Cl)cc1,"inconclusive: 1.26 µM [inhibitor, single point]",
COc1cc(C2NC(=O)c3c(sc4c3CCN(C)C4)N2)ccc1OC(=O)c1ccccc1 (stereo unspecified),"inconclusive: 11.2 µM [activator, partial curve]",
COc1ccccc1/C=C\C=N\n1c(-c2ccc(Cl)cc2)n[nH]c1=S,active: 10 µM,
COc1ccc(CC(=O)NNC(=O)c2cnccn2)cc1,,inactive: 1.83%
